Source: PMC4728404
No constants are given. Whether binding was seen depends on the method and setting. In cells and extracts the contact can be indirect. Some results given as binding are weak or reduced against the parent protein; the word gives no strength. For some assays here: Sequences can lack the tags named with a protein.

By UniProt entry, the sequences of proteins in these tests, tags left out.
UniProt P55737: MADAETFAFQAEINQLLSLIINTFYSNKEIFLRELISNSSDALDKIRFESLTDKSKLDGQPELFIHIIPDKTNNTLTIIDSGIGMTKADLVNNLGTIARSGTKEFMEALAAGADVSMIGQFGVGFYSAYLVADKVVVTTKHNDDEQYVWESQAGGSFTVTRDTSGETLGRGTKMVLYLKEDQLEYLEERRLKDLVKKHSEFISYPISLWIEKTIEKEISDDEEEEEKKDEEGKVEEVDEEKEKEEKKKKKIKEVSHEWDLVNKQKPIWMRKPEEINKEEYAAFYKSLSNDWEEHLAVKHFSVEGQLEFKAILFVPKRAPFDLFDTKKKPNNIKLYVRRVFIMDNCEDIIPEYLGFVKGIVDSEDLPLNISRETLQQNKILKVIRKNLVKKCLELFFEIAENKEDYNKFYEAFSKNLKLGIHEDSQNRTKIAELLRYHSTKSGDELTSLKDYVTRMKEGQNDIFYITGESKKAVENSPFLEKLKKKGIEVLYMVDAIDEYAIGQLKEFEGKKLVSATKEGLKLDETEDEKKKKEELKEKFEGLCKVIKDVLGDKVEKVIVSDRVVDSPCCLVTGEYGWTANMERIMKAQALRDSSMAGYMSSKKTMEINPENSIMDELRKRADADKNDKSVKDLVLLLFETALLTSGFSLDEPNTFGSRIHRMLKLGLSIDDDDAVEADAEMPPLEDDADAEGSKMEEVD

Key:
[1] = target: T1, nYFP-SGT1b (Arabidopsis thaliana) (UniProt Q9SUT5); test: split reporter; BiFC: nYFP and cYFP fusions agro-infiltrated into N. benthamiana leaf epidermal cells, confocal imaging
T1 sequence: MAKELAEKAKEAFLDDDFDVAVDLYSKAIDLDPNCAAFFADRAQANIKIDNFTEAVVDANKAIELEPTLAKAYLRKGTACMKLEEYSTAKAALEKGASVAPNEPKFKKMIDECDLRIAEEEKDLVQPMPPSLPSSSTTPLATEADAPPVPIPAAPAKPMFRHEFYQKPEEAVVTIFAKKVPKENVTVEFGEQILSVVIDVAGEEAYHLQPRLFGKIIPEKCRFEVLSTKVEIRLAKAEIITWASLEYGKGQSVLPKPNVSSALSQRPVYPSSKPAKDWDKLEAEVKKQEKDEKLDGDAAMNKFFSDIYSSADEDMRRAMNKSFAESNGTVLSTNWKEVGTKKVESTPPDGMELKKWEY

[2] = target: T2, TIR1-Myc (pDEX:TIR1-Myc plants) (Arabidopsis thaliana) (UniProt Q570C0); test: co-IP; anti-Myc antibody crosslinked to Protein G Dynabeads; 2 mg total protein from 7-day-old pGVG:TIR1-Myc seedlings treated with or without 30 uM dexamethasone for 24 h; 4 h at 4 °C; blots with anti-Myc, anti-HSP90, anti-SGT1
T2 sequence: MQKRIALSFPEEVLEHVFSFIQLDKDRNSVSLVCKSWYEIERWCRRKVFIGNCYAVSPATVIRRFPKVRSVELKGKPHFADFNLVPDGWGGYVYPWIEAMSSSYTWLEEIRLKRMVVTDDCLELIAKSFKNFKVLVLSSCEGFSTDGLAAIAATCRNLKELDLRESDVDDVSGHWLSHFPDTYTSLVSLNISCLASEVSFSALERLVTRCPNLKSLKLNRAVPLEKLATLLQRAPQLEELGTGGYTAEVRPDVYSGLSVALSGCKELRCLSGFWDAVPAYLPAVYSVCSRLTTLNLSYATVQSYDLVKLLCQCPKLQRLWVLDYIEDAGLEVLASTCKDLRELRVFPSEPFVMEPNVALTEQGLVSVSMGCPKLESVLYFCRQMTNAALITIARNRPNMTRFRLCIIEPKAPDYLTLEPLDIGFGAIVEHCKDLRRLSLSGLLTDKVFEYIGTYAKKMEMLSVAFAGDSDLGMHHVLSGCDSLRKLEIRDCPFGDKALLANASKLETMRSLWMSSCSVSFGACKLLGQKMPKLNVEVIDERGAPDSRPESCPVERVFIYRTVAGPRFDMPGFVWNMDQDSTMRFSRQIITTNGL

[3] = target: T3, TIR1-VENUS (pTIR1:gTIR1-VENUS plants) (Arabidopsis thaliana) (UniProt Q570C0); test: co-IP; same procedure with 4 ug anti-GFP antibody; total protein from 7-day-old pTIR1:gTIR1-VENUS seedlings; blots with anti-GFP, anti-HSP90, anti-SGT1
T3 sequence: T2 sequence

GST-SGT1b (Arabidopsis) = target: T4, GST-SGT1b (Arabidopsis) (UniProt Q9SUT5); test: pull-down; equal amounts of GST-tagged proteins purified from E. coli mixed with TIR1-Myc from a TNT extract, 4 °C for 4 h, washing, anti-Myc blot; only the target purified
T4 sequence: T1 sequence

[4] = target: T5, nYFP-TIR1 (Arabidopsis thaliana) (UniProt Q570C0); test: split reporter; BiFC: nYFP and cYFP fusions agro-infiltrated into N. benthamiana leaf epidermal cells, confocal imaging
T5 sequence: T2 sequence

“cYFP-HSP90.2 (from UniProt P55737 1-699)” was tested. Which binding [1] did it give?
Its binding is “binds”.

B1: SGT1b (endogenous, Arabidopsis seedlings) (protein, UniProt Q9SUT5 1-358)
chain: T1 sequence
What does the source list for B1?
binding [2]: binds; binding [3]: binds

B2: TIR1-Myc synthesized in a TNT extract (protein, UniProt Q570C0 1-594)
chain: T2 sequence
Which binding (GST-SGT1b (Arabidopsis)) does the source give for B2 here?
Its binding is “binds”.

B3: cYFP-SGT1b (protein, UniProt Q9SUT5 1-358)
chain: T1 sequence
How did the binding [4] turn out when B3 was run?
Its binding is “binds”.
